Results deposited as PubChem BioAssay AID686938 (Drosophila RNAi Screening Center, 2013)
Test: 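Looking for CRAC channel components and the factors controlling them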 (primary screen). Cell system: Drosophila S2R+ cells. Knock-down reagent: long dsRNA against Drosophila genes, about 0.25 µg dsRNA per well, roughly 10,000 cells. Time to read-out: 5 days of knock-down before the calcium assay. Challenge: thapsigargin (SERCA pump blocker) to empty calcium stores; entry signal taken 4 min after adding it. Detection: 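Per-well fluo-4 fluorescence in two replicates, unnormalised, measured in resting cells and 4 min after store depletion by the SERCA blocker thapsigargin; ratio of the two present in few wells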. Reading the numbers: calcium entry signal: higher = stronger calcium signal after store depletion; resting calcium signal: higher = higher resting calcium signal. Units: calcium entry signal in fluorescence units; resting calcium signal in fluorescence units. Call rule: 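Hit if the duplicate-averaged plate z-score for entry over resting signal is under −3; wells with weak total dye signal (Fmax z < −2) or more than 5 off-targets removed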. Calls: active = strongly reduced calcium entry; inactive = no strong reduction.
The deposit covers about 23,000 reagents; shown is a random part of those with a known target gene and a result. In the full data, 75 (0.33%) were called active. 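Raw plate signals without normalisation; calls rest on plate z-scores that were not deposited; ratio present for only 364 wells.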 Unmarked entries are inactive. Reagents against one gene are numbered here. The record does not give: the dose of the treatment.

cry showed calcium entry signal, replicate 1 = 3.15e7; calcium entry signal, replicate 2 = 3.47e7; resting calcium signal, replicate 1 = 3.88e7; resting calcium signal, replicate 2 = 1.54e7.
aly #1 scored calcium entry signal, replicate 1 = 4.01e7; calcium entry signal, replicate 2 = 4.32e7; resting calcium signal, replicate 1 = 2.20e7; resting calcium signal, replicate 2 = 2.05e7.
After knock-down of aly #2 the results were calcium entry signal, replicate 1 = 3.37e7; calcium entry signal, replicate 2 = 4.03e7; resting calcium signal, replicate 1 = 1.86e7; resting calcium signal, replicate 2 = 1.91e7.
With knock-down of RpL37-2, the record shows calcium entry signal, replicate 1 = 3.72e7; calcium entry signal, replicate 2 = 3.93e7; resting calcium signal, replicate 1 = 1.96e7; resting calcium signal, replicate 2 = 1.87e7.
After knock-down of Nuak #1 the results were calcium entry signal, replicate 1 = 2.76e7; calcium entry signal, replicate 2 = 2.48e7; resting calcium signal, replicate 1 = 1.42e7; resting calcium signal, replicate 2 = 1.37e7.
Knock-down of Nuak #2 came out at: calcium entry signal, replicate 1 = 3.73e7; calcium entry signal, replicate 2 = 5.23e7; resting calcium signal, replicate 1 = 1.65e7; resting calcium signal, replicate 2 = 2.13e7.
Nuak #3 gave calcium entry signal, replicate 1 = 3.00e7; calcium entry signal, replicate 2 = 3.14e7; resting calcium signal, replicate 1 = 1.39e7; resting calcium signal, replicate 2 = 1.51e7.
With knock-down of scb #1, the screen gave calcium entry signal, replicate 1 = 4.30e7; calcium entry signal, replicate 2 = 4.16e7; resting calcium signal, replicate 1 = 2.03e7; resting calcium signal, replicate 2 = 1.82e7.
Silencing of scb #2 gave: calcium entry signal, replicate 1 = 3.85e7; calcium entry signal, replicate 2 = 4.13e7; resting calcium signal, replicate 1 = 1.98e7; resting calcium signal, replicate 2 = 1.85e7.
Dp1 showed calcium entry signal, replicate 1 = 4.06e7; calcium entry signal, replicate 2 = 4.77e7; resting calcium signal, replicate 1 = 1.79e7; resting calcium signal, replicate 2 = 2.04e7.
CG31465 scored calcium entry signal, replicate 1 = 2.37e7; calcium entry signal, replicate 2 = 2.22e7; resting calcium signal, replicate 1 = 1.17e7; resting calcium signal, replicate 2 = 1.17e7.
Knock-down of CG18088 resulted in: calcium entry signal, replicate 1 = 2.62e7; calcium entry signal, replicate 2 = 3.41e7; resting calcium signal, replicate 1 = 1.29e7; resting calcium signal, replicate 2 = 1.71e7.
Knock-down of CG3088 gave: calcium entry signal, replicate 1 = 5.50e7; calcium entry signal, replicate 2 = 4.09e7; resting calcium signal, replicate 1 = 3.58e7; resting calcium signal, replicate 2 = 1.71e7.
After knock-down of CG31636 the results were calcium entry signal, replicate 1 = 3.20e7; calcium entry signal, replicate 2 = 2.67e7; resting calcium signal, replicate 1 = 1.55e7; resting calcium signal, replicate 2 = 1.36e7.

Look-ups from above:
Value of aly #1 in “resting calcium signal, replicate 1”: 2.20e7
cry, calcium entry signal, replicate 1: 3.15e7
